Results as given in the supplement of paper PMC12819154, “High-throughput peptide-centric local stability assay extends protein–ligand identification to membrane proteins, tissues and bacteria” (Nature Structural & Molecular Biology, 2025).
This is one part of the list. Small differences around the control level are noise.

Chains of the proteins cited; added tags and fusions are not shown. Lines headed by an entry give the natural chain unless they say otherwise; changes in a name come on top.
UniProt Q99733: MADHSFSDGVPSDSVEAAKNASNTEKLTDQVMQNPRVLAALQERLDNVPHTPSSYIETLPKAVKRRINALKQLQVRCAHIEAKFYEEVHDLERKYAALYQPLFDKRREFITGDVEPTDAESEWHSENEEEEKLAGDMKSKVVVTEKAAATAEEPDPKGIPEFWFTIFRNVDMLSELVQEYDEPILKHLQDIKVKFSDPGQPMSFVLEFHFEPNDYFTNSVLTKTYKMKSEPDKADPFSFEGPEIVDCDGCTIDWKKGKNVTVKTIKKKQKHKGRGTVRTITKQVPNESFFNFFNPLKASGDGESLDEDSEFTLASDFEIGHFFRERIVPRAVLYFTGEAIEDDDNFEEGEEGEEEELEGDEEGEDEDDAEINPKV
UniProt Q99590: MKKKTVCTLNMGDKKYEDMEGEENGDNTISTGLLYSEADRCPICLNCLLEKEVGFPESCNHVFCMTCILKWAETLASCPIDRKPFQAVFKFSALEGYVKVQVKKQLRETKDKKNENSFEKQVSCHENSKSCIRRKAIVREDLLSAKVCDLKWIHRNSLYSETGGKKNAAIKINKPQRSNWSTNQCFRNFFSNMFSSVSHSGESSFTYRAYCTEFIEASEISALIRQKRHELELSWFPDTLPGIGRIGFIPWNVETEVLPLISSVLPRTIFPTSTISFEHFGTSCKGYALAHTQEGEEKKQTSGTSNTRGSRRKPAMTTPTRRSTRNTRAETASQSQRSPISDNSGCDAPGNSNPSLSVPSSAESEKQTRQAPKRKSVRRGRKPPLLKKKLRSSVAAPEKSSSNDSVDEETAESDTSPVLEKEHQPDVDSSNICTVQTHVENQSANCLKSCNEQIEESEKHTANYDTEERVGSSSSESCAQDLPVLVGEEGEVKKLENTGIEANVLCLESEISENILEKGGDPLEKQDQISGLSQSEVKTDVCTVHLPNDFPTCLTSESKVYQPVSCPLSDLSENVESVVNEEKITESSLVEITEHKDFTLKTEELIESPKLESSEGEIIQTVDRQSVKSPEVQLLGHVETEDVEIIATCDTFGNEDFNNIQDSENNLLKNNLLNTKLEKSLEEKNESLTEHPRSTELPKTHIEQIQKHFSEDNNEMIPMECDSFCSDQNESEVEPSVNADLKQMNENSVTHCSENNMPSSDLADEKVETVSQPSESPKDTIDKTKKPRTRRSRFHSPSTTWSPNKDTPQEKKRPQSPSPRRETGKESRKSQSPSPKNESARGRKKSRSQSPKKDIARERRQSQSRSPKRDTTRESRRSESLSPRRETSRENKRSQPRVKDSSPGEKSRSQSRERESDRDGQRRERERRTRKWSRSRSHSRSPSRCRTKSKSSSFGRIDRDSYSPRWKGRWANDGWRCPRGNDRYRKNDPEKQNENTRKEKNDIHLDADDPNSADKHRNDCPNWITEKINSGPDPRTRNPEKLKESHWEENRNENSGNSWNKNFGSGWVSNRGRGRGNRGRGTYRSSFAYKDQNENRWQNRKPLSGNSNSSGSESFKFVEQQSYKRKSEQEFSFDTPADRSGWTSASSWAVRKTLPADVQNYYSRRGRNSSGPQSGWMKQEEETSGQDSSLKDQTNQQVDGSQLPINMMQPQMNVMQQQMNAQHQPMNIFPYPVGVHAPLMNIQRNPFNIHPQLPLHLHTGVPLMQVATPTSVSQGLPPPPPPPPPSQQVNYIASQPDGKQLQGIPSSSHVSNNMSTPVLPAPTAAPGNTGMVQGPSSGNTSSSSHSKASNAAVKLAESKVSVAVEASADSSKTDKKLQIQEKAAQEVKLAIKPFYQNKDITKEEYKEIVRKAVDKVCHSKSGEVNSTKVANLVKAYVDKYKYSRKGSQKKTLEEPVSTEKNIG
UniProt Q99684: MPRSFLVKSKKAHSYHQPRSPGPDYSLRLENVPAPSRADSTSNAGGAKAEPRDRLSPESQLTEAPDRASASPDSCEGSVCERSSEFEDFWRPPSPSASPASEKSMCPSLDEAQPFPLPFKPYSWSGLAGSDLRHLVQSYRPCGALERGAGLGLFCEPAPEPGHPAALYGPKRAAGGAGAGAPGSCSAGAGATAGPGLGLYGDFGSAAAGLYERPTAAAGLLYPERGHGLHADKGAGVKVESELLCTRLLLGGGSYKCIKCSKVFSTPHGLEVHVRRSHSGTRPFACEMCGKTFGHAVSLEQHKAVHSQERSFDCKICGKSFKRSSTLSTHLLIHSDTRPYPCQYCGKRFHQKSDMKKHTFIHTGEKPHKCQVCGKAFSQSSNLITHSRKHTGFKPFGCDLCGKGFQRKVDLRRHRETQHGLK
UniProt Q99952: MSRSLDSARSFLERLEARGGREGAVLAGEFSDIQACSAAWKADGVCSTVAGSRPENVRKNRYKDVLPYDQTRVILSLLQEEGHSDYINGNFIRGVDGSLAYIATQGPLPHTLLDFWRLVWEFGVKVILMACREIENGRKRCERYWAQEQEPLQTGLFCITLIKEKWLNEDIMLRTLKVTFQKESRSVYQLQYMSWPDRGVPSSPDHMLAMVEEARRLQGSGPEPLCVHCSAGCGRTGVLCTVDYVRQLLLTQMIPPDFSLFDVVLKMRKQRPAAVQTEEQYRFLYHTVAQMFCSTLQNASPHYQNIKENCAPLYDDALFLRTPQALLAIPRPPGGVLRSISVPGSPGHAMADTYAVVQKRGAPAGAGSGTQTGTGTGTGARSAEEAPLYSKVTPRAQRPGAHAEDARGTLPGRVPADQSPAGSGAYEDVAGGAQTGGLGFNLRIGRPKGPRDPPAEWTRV
UniProt Q9BS16: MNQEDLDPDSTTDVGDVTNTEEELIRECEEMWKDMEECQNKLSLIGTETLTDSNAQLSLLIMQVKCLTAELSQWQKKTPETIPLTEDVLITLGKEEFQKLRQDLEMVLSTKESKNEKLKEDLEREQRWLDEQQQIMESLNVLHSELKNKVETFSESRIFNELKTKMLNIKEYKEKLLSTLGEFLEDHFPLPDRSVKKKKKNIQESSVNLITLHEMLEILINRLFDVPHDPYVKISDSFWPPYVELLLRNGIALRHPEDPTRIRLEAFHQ
UniProt Q9BSJ8: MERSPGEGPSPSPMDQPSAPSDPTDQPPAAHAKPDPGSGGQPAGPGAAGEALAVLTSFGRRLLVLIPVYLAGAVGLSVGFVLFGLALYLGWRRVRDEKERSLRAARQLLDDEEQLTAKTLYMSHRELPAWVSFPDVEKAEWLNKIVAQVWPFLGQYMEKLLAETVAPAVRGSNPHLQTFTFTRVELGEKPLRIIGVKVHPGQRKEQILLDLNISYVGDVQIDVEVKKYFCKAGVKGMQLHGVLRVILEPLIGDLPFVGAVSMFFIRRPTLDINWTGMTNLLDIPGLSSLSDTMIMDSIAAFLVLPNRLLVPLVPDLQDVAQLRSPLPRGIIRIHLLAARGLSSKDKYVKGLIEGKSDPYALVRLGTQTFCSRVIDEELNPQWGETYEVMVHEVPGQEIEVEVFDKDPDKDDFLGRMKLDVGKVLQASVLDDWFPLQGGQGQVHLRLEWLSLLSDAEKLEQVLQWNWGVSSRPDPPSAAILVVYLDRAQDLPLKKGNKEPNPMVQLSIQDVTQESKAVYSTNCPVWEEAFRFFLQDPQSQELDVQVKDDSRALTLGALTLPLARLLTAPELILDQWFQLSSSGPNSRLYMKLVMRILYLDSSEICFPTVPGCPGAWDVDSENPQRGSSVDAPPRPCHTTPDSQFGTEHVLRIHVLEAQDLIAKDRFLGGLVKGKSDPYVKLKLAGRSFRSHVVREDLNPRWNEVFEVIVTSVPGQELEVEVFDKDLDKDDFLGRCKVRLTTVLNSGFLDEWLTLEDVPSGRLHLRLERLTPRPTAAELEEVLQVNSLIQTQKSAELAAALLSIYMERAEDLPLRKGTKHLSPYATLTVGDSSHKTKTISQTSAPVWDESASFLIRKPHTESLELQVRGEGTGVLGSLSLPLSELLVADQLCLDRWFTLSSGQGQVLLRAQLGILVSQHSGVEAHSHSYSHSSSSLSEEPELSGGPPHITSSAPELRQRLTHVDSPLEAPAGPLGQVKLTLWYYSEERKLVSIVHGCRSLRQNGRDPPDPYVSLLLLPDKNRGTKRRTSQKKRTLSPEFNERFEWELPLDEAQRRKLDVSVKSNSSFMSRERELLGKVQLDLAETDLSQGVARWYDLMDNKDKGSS
UniProt Q9BT73: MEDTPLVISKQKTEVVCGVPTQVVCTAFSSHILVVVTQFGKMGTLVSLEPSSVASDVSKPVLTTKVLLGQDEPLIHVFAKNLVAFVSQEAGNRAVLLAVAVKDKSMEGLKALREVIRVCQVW
UniProt Q9BSH5: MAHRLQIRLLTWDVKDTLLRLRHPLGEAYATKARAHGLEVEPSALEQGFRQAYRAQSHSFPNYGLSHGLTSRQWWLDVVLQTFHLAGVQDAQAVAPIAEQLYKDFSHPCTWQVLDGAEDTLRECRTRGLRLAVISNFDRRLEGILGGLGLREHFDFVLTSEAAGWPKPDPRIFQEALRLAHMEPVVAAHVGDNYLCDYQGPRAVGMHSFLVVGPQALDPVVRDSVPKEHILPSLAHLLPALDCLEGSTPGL
UniProt Q99832: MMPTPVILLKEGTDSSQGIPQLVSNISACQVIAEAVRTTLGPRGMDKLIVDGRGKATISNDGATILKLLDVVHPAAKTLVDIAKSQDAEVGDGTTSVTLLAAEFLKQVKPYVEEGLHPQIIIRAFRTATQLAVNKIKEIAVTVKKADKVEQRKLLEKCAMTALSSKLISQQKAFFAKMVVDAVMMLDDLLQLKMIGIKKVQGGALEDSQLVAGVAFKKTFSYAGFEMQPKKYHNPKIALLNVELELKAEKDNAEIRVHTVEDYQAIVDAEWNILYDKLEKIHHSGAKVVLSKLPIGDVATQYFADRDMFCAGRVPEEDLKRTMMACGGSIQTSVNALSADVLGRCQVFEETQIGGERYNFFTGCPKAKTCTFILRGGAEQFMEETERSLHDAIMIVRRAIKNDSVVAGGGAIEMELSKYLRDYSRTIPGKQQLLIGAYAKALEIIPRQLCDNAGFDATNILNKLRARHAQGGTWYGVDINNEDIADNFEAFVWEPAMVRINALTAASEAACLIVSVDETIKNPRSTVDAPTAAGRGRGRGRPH
UniProt Q9BPW8: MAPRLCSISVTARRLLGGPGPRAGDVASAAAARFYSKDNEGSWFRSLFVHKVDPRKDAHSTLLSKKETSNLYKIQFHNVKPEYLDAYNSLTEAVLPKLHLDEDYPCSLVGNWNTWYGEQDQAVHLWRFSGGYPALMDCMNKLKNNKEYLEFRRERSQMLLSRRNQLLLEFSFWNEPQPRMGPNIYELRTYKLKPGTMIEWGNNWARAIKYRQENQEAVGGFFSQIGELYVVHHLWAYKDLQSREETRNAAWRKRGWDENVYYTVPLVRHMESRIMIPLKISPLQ
UniProt Q9BTE1, whole entry: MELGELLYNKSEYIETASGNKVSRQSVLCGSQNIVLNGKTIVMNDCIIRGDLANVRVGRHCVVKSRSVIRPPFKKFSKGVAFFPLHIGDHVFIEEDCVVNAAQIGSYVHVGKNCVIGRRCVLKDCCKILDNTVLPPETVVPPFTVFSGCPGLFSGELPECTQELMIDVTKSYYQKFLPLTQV
UniProt Q9BS26: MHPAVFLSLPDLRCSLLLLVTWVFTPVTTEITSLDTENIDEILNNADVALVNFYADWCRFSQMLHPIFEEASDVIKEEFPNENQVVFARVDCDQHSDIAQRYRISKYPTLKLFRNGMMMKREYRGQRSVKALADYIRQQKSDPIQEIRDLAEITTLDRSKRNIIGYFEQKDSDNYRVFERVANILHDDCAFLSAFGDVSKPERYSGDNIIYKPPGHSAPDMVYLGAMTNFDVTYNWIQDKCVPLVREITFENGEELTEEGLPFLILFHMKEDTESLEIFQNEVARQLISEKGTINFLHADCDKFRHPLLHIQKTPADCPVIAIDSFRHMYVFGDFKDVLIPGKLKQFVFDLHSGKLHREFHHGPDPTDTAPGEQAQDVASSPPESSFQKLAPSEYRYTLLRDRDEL
UniProt Q99618: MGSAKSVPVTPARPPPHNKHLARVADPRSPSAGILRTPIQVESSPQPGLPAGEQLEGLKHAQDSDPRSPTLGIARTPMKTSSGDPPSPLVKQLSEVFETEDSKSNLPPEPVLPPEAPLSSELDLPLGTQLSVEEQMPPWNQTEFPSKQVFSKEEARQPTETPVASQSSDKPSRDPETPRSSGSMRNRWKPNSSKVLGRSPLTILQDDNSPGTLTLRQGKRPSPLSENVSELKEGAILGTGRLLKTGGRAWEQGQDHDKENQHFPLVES
UniProt Q9BQ67, whole entry: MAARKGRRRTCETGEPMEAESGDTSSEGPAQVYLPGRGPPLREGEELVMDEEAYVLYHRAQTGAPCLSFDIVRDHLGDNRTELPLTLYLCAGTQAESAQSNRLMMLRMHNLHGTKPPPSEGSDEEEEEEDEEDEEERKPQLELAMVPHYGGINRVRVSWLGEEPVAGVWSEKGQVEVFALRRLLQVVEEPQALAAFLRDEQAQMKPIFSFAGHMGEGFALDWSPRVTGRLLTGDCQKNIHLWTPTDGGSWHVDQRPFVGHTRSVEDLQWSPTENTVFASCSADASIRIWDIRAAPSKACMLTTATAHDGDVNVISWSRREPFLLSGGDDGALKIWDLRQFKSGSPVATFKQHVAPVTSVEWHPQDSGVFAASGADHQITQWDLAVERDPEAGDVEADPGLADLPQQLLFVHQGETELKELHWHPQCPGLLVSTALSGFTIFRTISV

Compound: Cc1nc(Nc2ncc(C(=O)Nc3c(C)cccc3Cl)s2)cc(N2CCN(CCO)CC2)n1 [dasatinib]
Assay: log2 fold change of tryptic peptide abundance, ligand vs vehicle (limited proteolysis) (log2 ratio); higher = more trypsin-susceptible (destabilized)
Conditions: ligand concentration: 5 uM; sample: K562 cleared lysate

Target | log2 fold change
FYCO1 (peptide sequence: TLTTGSSAYLWKPPSR, peptide start residue: 182) (UniProt Q9BQS8) | 0.385
CDC5L (peptide sequence: HEDSAIPR, peptide start residue: 758) (UniProt Q99459) | -0.431
NAP1L4 (peptide sequence: NASNTEKLTDQVMQNPR, peptide start residue: 20) (UniProt Q99733) | -0.0999
UniProt Q9BS31 (peptide sequence: GNLNIHQR, peptide start residue: 331) | 0.457
PKMYT1 (peptide sequence: KLAEVGSHEK, peptide start residue: 154) (UniProt Q99640) | -1.2
SLC39A3 (peptide sequence: GHALYVEPHGHGPSLSVQGLSR, peptide start residue: 143) (UniProt Q9BRY0) | 0.00413
UniProt Q99590 (peptide sequence: VSVAVEASADSSKTDK, peptide start residue: 1360) | -0.987
PSMD1 (peptide sequence: VINDKHDDVMAK, peptide start residue: 716) (UniProt Q99460) | -0.434
GFI1 (peptide sequence: AFSQSSNLITHSR, peptide start residue: 284) (UniProt Q99684) | 0.0596
CCDC77 (peptide sequence: SWMLEKDNLMSK, peptide start residue: 302) (UniProt Q9BR77) | 0.198
PTPN18 (peptide sequence: SAEEAPLYSK, peptide start residue: 382) (UniProt Q99952) | 0.186
SECISBP2 (peptide sequence: HRNENTCPLPQEMK, peptide start residue: 127) (UniProt Q96T21) | 0.315
RTKN (peptide sequence: SLLVCNSR, peptide start residue: 74) (UniProt Q9BST9) | -0.166
GDF15 (peptide sequence: ASFPGPSELHSEDSR, peptide start residue: 38) (UniProt Q99988) | 0.295
UniProt Q9BSI4 (peptide sequence: AKPGTHLPQGPSSR, peptide start residue: 234) | -0.345
PFDN5 (peptide sequence: LHDVEHVLIDVGTGYYVEK, peptide start residue: 76) (UniProt Q99471) | 0.349
CENPK (peptide sequence: LKEDLER, peptide start residue: 118) (UniProt Q9BS16) | -0.067
GINS3 (peptide sequence: TVFSADPNVVDLHK, peptide start residue: 98) (UniProt Q9BRX5) | 0.5
UniProt Q9BSJ8 (peptide sequence: GSNPHLQTFTFTR, peptide start residue: 171) | -0.594

Target | log2 fold change
ARHGAP9 (peptide sequence: VSGNLAVVQK, peptide start residue: 579) (UniProt Q9BRR9) | 0.13
UniProt Q9BTX1 (peptide sequence: SSQMPRPSVPPLVK, peptide start residue: 417) | -0.323
MYBBP1A (peptide sequence: LSLVIRSPSLLQSGAK, peptide start residue: 1302) (UniProt Q9BQG0) | 0.467
PSMG3 (peptide sequence: VLLGQDEPLIHVFAK, peptide start residue: 66) (UniProt Q9BT73) | -0.0927
POLR3C (peptide sequence: LTETMEDGK, peptide start residue: 129) (UniProt Q9BUI4) | 0.488
HAUS7 (peptide sequence: MNELMEK, peptide start residue: 352) (UniProt Q99871) | 0.1
KXD1 (peptide sequence: DLDSIFRR, peptide start residue: 76) (UniProt Q9BQD3) | -0.0308
HDHD3 (peptide sequence: LLTWDVKDTLLR, peptide start residue: 9) (UniProt Q9BSH5) | 0.304
CCT7 (peptide sequence: TIPGKQQLLIGAYAK, peptide start residue: 426) (UniProt Q99832) | 0.132
CENPO (peptide sequence: GGVLAHLER, peptide start residue: 15) (UniProt Q9BU64) | 0.0152
NIPSNAP1 (peptide sequence: NNKEYLEFRR, peptide start residue: 144) (UniProt Q9BPW8) | 0.649
DERL1 (peptide sequence: HNWGQGFR, peptide start residue: 240) (UniProt Q9BUN8) | -0.0763
DCTN5 (peptide sequence: CVLKDCCK, peptide start residue: 120) (UniProt Q9BTE1) | -0.506
UniProt Q9BSB4 (peptide sequence: RLIKDTLAL, peptide start residue: 210) | -0.946
DNAJC2 (peptide sequence: KKEEMNR, peptide start residue: 259) (UniProt Q99543) | 0.172
NUP88 (peptide sequence: LRGPSGGGEEPALSQYQR, peptide start residue: 83) (UniProt Q99567) | -0.209
UniProt Q9BS26 (peptide sequence: HMYVFGDFKDVLIPGKLK, peptide start residue: 328) | 0.227
CDCA3 (peptide sequence: SVPVTPARPPPHNK, peptide start residue: 6) (UniProt Q99618) | 0.757
GRWD1 (peptide sequence: SGSPVATFK, peptide start residue: 342) (UniProt Q9BQ67) | -0.0868

Random excerpt: three entries already listed
Target | log2 fold change
DERL1 (peptide sequence: HNWGQGFR, peptide start residue: 240) (UniProt Q9BUN8) | -0.0763
UniProt Q9BTX1 (peptide sequence: SSQMPRPSVPPLVK, peptide start residue: 417) | -0.323
KXD1 (peptide sequence: DLDSIFRR, peptide start residue: 76) (UniProt Q9BQD3) | -0.0308
